Assay results as given in the supplement of paper PMC10849652.
The other results are listed elsewhere or left out.

Sequences of proteins named here, by UniProt entry; tags and fusion partners are left off. A change or cut given only in a name is not applied to a line headed by its entry.
UniProt P0DJ07: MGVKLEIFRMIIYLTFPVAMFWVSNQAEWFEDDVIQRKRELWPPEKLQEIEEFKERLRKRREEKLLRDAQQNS
UniProt Q15121, whole entry, looked up: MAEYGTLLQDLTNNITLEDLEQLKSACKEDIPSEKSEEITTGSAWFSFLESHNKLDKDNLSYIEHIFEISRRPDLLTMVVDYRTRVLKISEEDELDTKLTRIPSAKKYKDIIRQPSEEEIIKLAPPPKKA
UniProt Q29RF7: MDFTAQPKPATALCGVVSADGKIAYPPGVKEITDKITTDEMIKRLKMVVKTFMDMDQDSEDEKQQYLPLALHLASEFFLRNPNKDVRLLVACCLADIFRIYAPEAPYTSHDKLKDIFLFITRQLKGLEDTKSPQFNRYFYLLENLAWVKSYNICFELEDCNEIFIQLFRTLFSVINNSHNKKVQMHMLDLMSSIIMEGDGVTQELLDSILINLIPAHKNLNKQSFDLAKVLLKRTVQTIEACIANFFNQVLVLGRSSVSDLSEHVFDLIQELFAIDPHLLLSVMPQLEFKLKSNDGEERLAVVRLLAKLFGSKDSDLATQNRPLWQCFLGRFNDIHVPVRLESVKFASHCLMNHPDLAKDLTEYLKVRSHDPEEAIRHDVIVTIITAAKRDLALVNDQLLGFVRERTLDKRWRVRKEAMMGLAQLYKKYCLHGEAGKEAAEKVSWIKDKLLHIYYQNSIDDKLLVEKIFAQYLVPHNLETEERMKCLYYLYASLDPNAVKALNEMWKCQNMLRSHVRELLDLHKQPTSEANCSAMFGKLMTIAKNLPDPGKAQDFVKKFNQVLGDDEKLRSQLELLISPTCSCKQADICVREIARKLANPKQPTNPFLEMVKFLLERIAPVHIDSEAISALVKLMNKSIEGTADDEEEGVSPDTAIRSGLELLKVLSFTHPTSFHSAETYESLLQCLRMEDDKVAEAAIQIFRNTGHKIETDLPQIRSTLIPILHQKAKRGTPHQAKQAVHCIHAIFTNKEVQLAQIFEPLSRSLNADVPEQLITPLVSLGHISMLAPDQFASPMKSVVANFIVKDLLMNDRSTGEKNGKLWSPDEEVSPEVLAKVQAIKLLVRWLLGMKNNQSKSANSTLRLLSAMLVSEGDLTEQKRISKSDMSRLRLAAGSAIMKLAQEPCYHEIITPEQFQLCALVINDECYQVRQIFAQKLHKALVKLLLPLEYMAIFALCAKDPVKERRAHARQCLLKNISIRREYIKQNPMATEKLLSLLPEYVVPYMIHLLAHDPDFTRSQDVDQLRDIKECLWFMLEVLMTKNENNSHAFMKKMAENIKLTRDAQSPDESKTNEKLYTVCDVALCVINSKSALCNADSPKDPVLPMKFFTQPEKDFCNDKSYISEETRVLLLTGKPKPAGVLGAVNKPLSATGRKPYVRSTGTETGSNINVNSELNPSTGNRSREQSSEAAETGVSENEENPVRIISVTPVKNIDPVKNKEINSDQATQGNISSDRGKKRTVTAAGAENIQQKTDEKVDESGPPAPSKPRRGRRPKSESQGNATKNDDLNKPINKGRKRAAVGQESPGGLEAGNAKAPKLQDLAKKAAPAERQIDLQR
UniProt P30101, whole entry, looked up: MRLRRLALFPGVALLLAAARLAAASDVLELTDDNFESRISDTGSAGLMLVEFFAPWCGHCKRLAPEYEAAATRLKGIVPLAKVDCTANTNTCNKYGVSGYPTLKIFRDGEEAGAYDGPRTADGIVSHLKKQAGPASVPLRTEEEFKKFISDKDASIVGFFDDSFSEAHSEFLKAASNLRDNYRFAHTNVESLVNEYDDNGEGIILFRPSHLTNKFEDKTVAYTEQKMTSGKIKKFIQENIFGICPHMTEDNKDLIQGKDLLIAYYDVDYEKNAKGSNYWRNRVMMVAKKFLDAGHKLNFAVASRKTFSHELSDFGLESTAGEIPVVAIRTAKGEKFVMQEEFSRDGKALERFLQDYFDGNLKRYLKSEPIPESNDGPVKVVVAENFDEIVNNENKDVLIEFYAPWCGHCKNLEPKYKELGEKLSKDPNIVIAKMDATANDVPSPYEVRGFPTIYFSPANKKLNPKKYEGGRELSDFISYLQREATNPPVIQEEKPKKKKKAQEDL
UniProt Q15366, whole entry, looked up: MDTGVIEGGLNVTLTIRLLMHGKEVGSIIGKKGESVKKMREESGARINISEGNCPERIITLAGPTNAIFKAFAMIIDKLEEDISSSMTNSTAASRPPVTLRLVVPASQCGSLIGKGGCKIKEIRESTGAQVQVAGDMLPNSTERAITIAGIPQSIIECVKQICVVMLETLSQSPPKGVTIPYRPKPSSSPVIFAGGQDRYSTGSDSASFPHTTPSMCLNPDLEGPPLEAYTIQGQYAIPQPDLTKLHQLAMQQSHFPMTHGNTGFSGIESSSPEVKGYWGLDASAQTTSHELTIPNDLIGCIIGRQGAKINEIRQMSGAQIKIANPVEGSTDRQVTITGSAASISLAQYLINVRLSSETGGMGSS
UniProt O94913, whole entry, looked up: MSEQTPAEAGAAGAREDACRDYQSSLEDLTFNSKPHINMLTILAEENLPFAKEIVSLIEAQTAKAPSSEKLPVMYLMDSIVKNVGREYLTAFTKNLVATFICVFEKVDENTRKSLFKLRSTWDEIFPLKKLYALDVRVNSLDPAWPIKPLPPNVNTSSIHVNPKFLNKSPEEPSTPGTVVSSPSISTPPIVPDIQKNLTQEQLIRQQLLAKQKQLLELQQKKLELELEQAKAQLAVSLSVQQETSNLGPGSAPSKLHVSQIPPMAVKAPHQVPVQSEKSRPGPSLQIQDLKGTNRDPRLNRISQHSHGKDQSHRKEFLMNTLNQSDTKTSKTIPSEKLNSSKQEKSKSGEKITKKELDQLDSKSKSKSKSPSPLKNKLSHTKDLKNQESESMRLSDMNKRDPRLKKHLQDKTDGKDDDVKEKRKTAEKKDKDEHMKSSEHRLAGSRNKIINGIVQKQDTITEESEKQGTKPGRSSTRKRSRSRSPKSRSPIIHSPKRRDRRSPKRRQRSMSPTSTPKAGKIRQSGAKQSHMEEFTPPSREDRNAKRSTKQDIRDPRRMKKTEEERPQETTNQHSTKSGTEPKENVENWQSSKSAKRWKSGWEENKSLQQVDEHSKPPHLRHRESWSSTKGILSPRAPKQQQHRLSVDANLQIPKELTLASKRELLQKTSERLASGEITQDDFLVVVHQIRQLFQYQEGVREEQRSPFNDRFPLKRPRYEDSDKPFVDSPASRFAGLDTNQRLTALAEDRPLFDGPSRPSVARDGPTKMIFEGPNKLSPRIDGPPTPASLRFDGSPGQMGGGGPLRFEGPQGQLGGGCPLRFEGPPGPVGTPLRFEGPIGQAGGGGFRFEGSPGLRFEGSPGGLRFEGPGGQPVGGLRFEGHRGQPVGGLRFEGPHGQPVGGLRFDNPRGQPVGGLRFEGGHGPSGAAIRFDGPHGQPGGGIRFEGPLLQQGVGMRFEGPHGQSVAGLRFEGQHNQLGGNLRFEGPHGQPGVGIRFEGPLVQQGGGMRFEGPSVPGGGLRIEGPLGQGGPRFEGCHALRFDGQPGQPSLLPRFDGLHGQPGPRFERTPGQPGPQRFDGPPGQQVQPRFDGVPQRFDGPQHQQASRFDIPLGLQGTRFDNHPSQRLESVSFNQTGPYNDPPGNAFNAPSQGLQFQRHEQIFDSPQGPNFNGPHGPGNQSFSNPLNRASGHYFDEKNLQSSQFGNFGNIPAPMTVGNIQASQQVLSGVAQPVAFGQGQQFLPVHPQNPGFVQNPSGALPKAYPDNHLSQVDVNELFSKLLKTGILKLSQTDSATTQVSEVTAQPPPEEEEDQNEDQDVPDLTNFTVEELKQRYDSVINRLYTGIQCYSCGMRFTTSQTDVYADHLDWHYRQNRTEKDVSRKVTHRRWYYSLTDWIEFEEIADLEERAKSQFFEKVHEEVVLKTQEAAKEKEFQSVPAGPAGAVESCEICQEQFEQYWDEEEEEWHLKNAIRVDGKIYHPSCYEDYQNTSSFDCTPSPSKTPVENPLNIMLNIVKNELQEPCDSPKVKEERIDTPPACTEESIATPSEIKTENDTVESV
UniProt P61457: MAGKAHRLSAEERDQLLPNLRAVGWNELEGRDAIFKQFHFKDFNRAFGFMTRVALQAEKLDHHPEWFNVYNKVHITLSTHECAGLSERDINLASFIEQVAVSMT
UniProt P08237: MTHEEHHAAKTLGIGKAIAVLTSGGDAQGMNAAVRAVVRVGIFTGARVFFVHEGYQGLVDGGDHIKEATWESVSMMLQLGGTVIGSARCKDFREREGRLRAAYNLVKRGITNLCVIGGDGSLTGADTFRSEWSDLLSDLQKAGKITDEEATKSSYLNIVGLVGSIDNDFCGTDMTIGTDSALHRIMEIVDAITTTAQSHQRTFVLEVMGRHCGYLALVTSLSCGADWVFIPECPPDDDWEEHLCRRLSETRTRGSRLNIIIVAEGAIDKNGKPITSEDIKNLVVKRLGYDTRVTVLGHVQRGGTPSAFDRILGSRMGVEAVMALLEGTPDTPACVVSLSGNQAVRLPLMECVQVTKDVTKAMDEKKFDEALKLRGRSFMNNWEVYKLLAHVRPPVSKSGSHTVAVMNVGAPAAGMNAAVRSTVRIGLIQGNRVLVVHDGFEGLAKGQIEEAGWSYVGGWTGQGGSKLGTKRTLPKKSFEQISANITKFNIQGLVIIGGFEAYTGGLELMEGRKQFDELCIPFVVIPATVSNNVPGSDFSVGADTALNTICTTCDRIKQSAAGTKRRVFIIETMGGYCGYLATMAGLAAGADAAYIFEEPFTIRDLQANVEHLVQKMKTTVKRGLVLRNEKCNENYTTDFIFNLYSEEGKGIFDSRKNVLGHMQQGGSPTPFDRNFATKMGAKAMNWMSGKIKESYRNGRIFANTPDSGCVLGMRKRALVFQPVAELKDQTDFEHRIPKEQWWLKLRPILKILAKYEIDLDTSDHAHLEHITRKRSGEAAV
UniProt Q86YH6: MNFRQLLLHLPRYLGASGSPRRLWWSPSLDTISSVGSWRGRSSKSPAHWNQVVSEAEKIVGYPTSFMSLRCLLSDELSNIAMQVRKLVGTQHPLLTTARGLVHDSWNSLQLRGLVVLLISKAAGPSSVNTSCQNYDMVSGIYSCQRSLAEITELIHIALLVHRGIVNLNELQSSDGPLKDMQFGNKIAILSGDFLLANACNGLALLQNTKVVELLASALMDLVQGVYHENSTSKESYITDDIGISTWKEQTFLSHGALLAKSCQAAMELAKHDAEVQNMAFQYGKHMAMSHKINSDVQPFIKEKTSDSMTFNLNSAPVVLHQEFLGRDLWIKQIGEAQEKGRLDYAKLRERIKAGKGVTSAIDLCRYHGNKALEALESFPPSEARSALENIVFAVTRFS
UniProt Q86SE9: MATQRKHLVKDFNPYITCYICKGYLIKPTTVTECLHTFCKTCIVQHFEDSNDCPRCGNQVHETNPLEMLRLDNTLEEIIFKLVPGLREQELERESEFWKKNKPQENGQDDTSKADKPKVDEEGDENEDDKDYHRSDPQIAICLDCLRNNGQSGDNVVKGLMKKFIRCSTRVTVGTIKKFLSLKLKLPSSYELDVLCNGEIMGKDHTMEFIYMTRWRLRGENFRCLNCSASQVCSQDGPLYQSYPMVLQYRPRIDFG
UniProt O00628: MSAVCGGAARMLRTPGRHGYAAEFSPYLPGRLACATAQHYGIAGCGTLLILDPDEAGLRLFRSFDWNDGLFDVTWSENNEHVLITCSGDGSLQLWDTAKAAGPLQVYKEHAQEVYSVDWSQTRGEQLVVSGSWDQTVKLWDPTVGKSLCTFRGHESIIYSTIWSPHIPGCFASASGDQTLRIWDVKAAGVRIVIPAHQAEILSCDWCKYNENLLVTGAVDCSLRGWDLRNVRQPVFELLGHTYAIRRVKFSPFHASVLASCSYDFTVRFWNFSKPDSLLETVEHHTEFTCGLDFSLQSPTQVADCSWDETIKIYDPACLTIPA
UniProt Q9Y5K3: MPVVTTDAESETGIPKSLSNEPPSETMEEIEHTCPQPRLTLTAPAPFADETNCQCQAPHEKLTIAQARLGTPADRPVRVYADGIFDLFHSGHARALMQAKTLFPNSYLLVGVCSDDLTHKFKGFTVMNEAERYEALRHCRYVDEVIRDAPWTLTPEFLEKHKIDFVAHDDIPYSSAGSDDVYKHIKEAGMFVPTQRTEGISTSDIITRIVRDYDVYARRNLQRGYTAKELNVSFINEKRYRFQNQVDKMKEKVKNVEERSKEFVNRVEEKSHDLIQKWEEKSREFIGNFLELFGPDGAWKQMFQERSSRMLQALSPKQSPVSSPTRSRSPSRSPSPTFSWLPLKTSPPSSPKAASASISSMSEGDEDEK
UniProt P57721, whole entry, looked up: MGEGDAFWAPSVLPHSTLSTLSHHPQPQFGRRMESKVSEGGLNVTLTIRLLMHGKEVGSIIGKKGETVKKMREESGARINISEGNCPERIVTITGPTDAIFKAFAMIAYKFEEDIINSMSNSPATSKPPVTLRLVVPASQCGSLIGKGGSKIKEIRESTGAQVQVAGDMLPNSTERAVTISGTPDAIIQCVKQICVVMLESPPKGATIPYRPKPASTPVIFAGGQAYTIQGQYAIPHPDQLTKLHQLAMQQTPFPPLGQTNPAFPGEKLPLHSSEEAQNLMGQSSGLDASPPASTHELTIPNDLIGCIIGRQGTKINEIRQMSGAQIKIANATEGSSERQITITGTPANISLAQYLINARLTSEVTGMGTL

What follows are targets tested with C1=CC=C(C=C1)[C@H](COC2=CC3=C(C=C2)NC(=O)N3)NC(=O)C4=CC=CN(C4=O)CC5=CC(=C(C=C5)F)F (assay: log2 fold change, soluble protein after heating vs DMSO (PISA); higher = thermal stabilisation; K562 lysate, 10 uM; active = over 0.2 and 3.5 SD of the protein, either way, in both replicates (recomputed)).
Method in brief: (§1)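 Pellets of K562 cells were dounce-homogenised in PBS pH 7.4 with 1 mM MgCl2, and the crude extract was held at 1 mg/mL protein for a 30 min treatment with 10 μM compound. Aliquots were heated for 3 min over 48°C-58°C and pooled before NP-40 was added to 0.5% at 4°C. The supernatant from 21,000xg for 90 min was quantified by TMTpro 16plex LC-MS/MS with channel sums equalised. Values are reported from duplicates as log-two fold change in thermal stability relative to solvent controls.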

Target | log2 fold change
PCNT (UniProt O95613) | inactive: 0.035
PET100 (UniProt P0DJ07) | inactive: 0.062
PEA15 isoform 2 (UniProt Q15121) | inactive: -0.015
PDS5A (UniProt Q29RF7) | inactive: -0.049
PDIA3 (UniProt P30101) | inactive: 0.015
PCBP2 isoform 8 (UniProt Q15366) | inactive: 0.098
PCF11 (UniProt O94913) | inactive: -0.135
PDE8A (UniProt O60658) | inactive: -0.099
PCBD1 (UniProt P61457) | inactive: -0.007
PFKM isoform 3 (UniProt P08237) | inactive: 0.013
PDSS2 (UniProt Q86YH6) | inactive: 0.028
PGD (UniProt P52209) | inactive: -0.005
PCGF5 (UniProt Q86SE9) | inactive: -0.022
PEX7 (UniProt O00628) | inactive: 0.01
PCYT1B (UniProt Q9Y5K3) | inactive: -0.006
PGD (UniProt K7EPF6) | inactive: -0.274
PCBP2 (UniProt F8W0G4) | inactive: 0.16

These targets were tested with CC1=C(SC2=C1C(=N[C@H](C3=NN=C(N32)C)CC(=O)N)C4=CC=C(C=C4)Cl)C in the same assay as above.
Method in brief: as §1

Target | log2 fold change
PARP9 (UniProt Q8IXQ6) | inactive: 0.017
PDK1 (UniProt Q15118) | inactive: 0.037
PEX14 (UniProt O75381) | inactive: 0.013
PFKL isoform 2 (UniProt P17858) | inactive: 0.013
PDXP (UniProt Q96GD0) | inactive: 0.03
PEPD (UniProt P12955) | inactive: -0.004
PATL1 (UniProt Q86TB9) | inactive: 0.048
PDCD10 (UniProt Q9BUL8) | inactive: 0.02
PARP14 (UniProt Q460N5) | inactive: -0.003
PCYOX1 (UniProt Q9UHG3) | inactive: 0.003
PEX16 isoform 2 (UniProt Q9Y5Y5) | inactive: 0
PCNX3 (UniProt Q9H6A9) | inactive: -0.053
PEX10 isoform 2 (UniProt O60683) | inactive: -0.377
PDHB (UniProt P11177) | inactive: 0.024
PCBP3 (UniProt P57721) | inactive: 0.014
PDHX (UniProt O00330) | inactive: 0.001
PCM1 (UniProt Q15154) | inactive: -0.002
PBXIP1 (UniProt Q96AQ6) | inactive: -0.01
PFKFB2 (UniProt O60825) | inactive: 0.001
PCNP (UniProt Q8WW12) | inactive: 0.038

Target | log2 fold change
PEF1 (UniProt Q9UBV8) | inactive: -0.039
PFKFB1 (UniProt P16118) | inactive: 0.036
PDIA4 (UniProt P13667) | inactive: -0.006
PCNT (UniProt O95613) | inactive: -0.016
PET100 (UniProt P0DJ07) | inactive: 0.031
PEA15 isoform 2 (UniProt Q15121) | inactive: -0.013
PDS5A (UniProt Q29RF7) | inactive: -0.031
PDIA3 (UniProt P30101) | inactive: -0.004
PCBP2 isoform 8 (UniProt Q15366) | inactive: 0.065
PCF11 (UniProt O94913) | inactive: 0.018
PDE8A (UniProt O60658) | inactive: -0.178
PCBD1 (UniProt P61457) | inactive: 0.011
PFKM isoform 3 (UniProt P08237) | inactive: 0.021
PDSS2 (UniProt Q86YH6) | inactive: 0.033
PGD (UniProt P52209) | inactive: 0.009
PCGF5 (UniProt Q86SE9) | inactive: 0.095
PEX7 (UniProt O00628) | inactive: -0.041
PCYT1B (UniProt Q9Y5K3) | inactive: 0.033
PGD (UniProt K7EPF6) | inactive: -0.028
PCBP2 (UniProt F8W0G4) | inactive: 0.052

What follows are targets tested with CC1=C2C(=CC=C1)N=C(N(C2=O)C3=CC=CC=C3C)CN4C=NC5=C(N=CN=C54)N in the same assay as above.
Method in brief: as §1

Target | log2 fold change
PARP9 (UniProt Q8IXQ6) | inactive: 0.084
PDK1 (UniProt Q15118) | inactive: 0.045
PEX14 (UniProt O75381) | inactive: -0.043
PFKL isoform 2 (UniProt P17858) | inactive: 0.099
PDXP (UniProt Q96GD0) | inactive: -0.019
PEPD (UniProt P12955) | inactive: 0.02
PATL1 (UniProt Q86TB9) | inactive: -0.018
PDCD10 (UniProt Q9BUL8) | inactive: -0.013
PARP14 (UniProt Q460N5) | inactive: 0.063
PCYOX1 (UniProt Q9UHG3) | inactive: -0.025
PEX16 isoform 2 (UniProt Q9Y5Y5) | inactive: -0.013
PCNX3 (UniProt Q9H6A9) | inactive: 0.143
PDHB (UniProt P11177) | inactive: -0.011
PCBP3 (UniProt P57721) | inactive: -0.026
PDHX (UniProt O00330) | inactive: 0.005
PCM1 (UniProt Q15154) | inactive: 0.022
PBXIP1 (UniProt Q96AQ6) | inactive: -0.007
PFKFB2 (UniProt O60825) | inactive: 0.03
PCNP (UniProt Q8WW12) | inactive: -0.023

Target | log2 fold change
PEF1 (UniProt Q9UBV8) | inactive: 0.055
PFKFB1 (UniProt P16118) | inactive: 0.137
PDIA4 (UniProt P13667) | inactive: -0.009
PCNT (UniProt O95613) | inactive: 0.011
PET100 (UniProt P0DJ07) | inactive: 0.072
PEA15 isoform 2 (UniProt Q15121) | inactive: -0.024
PDS5A (UniProt Q29RF7) | inactive: 0.017
PDIA3 (UniProt P30101) | inactive: -0.023
PCBP2 isoform 8 (UniProt Q15366) | inactive: -0.038
PCF11 (UniProt O94913) | inactive: 0.022
PDE8A (UniProt O60658) | inactive: 0.381
PCBD1 (UniProt P61457) | inactive: -0.03
PFKM isoform 3 (UniProt P08237) | inactive: 0.093
PDSS2 (UniProt Q86YH6) | inactive: 0.041
PGD (UniProt P52209) | inactive: 0.019
PCGF5 (UniProt Q86SE9) | inactive: 0.028
PEX7 (UniProt O00628) | inactive: -0.088
PCYT1B (UniProt Q9Y5K3) | inactive: -0.01
PCBP2 (UniProt F8W0G4) | inactive: 0.043
